Laboratory results taken from the supplement of paper PMC12819154, “High-throughput peptide-centric local stability assay extends protein–ligand identification to membrane proteins, tissues and bacteria” (Nature Structural & Molecular Biology, 2025).
Some of the results follow. Most entries show no effect beyond the scatter of the controls.

Sequences of proteins named here, by UniProt entry; tags and fusion partners are left off. A change or cut given only in a name is not applied to a line headed by its entry.
UniProt Q8WUX1, whole entry: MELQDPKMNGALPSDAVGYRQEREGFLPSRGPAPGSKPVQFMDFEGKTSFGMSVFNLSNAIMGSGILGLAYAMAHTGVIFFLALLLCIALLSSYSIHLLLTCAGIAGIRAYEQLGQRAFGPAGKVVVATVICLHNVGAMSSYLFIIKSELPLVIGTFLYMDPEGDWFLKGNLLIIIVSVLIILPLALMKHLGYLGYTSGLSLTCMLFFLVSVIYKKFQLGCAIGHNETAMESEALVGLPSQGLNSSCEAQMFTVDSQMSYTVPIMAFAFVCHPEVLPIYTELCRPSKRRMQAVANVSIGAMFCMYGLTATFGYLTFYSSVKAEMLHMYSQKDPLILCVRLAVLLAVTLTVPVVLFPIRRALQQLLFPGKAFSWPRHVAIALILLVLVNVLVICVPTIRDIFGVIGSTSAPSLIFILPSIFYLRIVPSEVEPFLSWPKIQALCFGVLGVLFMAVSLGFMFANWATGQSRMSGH
UniProt Q92572: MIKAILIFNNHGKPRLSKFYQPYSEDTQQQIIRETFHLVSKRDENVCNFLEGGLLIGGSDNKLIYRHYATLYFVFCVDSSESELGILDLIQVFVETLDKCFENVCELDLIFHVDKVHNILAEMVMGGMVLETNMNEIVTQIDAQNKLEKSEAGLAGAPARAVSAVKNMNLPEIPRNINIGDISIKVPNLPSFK
UniProt Q8TDD1, whole entry: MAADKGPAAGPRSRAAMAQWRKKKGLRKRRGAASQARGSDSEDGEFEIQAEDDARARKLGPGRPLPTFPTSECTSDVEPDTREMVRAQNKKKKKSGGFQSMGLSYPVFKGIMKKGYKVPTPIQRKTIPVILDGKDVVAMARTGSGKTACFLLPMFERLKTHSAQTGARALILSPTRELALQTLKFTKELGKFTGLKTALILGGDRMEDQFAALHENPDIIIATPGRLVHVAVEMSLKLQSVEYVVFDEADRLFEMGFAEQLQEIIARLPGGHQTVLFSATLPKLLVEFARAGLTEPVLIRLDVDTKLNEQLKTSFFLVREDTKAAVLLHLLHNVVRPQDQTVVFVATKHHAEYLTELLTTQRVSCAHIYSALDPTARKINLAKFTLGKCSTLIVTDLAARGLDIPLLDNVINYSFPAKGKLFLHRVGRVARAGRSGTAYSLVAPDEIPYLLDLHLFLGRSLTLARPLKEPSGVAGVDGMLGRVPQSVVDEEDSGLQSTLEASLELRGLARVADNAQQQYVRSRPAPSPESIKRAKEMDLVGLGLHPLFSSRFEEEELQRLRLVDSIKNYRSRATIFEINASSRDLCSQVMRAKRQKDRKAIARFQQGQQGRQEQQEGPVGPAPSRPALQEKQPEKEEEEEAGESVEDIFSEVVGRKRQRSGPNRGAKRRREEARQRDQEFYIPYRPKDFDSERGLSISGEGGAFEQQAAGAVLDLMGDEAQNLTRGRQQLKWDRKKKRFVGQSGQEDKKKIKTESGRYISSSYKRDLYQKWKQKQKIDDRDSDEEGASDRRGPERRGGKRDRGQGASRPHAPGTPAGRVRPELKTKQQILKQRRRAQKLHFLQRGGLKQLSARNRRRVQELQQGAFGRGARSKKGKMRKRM
UniProt Q8WUF5: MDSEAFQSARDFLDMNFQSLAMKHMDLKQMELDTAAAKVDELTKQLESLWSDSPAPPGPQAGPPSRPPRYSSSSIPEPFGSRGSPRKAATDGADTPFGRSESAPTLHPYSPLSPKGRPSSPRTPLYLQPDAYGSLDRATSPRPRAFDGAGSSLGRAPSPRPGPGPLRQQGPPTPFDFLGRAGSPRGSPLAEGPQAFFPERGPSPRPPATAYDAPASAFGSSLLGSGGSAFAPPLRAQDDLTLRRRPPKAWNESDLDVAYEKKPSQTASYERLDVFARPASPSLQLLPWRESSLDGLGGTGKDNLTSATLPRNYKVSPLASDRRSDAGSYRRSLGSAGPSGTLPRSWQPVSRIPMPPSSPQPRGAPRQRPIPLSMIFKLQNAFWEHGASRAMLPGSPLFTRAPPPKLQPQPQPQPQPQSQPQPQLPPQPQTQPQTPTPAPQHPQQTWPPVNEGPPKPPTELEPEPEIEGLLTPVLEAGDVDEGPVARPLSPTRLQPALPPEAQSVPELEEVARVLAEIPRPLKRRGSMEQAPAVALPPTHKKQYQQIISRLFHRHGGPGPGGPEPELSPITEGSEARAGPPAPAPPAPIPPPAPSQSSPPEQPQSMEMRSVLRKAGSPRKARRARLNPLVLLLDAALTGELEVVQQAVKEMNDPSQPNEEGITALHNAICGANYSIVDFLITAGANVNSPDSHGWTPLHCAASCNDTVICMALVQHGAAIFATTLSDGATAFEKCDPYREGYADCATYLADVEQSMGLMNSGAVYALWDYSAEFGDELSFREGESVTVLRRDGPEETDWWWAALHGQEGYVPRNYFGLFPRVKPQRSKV
UniProt Q8WUD6: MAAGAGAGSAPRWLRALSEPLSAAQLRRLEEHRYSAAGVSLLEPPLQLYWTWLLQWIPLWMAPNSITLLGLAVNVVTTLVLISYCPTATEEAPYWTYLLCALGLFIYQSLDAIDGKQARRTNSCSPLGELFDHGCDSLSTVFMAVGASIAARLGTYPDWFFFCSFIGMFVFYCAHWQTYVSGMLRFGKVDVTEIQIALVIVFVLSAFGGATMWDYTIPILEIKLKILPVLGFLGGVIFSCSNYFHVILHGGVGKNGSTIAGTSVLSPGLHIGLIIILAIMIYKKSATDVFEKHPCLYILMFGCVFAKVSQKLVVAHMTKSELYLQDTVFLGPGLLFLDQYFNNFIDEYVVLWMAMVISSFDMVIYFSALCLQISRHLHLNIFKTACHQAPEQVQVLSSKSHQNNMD
UniProt Q8WXI9: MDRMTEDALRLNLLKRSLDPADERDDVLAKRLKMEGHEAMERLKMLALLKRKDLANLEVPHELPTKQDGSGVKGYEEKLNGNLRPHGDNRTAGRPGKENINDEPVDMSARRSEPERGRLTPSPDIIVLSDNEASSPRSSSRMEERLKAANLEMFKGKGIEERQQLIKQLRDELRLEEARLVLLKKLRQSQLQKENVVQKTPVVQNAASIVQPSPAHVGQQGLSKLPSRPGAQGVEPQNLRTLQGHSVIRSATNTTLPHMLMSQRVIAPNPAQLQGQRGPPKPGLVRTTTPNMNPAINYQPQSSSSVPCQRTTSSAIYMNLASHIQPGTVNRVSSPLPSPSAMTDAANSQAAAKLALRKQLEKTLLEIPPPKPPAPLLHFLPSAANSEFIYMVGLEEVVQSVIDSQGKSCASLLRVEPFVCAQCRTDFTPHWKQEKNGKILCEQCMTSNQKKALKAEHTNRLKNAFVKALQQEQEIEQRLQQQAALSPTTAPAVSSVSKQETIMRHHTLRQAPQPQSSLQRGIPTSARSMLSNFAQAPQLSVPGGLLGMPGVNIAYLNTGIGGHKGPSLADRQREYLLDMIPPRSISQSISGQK
UniProt Q8TDM6: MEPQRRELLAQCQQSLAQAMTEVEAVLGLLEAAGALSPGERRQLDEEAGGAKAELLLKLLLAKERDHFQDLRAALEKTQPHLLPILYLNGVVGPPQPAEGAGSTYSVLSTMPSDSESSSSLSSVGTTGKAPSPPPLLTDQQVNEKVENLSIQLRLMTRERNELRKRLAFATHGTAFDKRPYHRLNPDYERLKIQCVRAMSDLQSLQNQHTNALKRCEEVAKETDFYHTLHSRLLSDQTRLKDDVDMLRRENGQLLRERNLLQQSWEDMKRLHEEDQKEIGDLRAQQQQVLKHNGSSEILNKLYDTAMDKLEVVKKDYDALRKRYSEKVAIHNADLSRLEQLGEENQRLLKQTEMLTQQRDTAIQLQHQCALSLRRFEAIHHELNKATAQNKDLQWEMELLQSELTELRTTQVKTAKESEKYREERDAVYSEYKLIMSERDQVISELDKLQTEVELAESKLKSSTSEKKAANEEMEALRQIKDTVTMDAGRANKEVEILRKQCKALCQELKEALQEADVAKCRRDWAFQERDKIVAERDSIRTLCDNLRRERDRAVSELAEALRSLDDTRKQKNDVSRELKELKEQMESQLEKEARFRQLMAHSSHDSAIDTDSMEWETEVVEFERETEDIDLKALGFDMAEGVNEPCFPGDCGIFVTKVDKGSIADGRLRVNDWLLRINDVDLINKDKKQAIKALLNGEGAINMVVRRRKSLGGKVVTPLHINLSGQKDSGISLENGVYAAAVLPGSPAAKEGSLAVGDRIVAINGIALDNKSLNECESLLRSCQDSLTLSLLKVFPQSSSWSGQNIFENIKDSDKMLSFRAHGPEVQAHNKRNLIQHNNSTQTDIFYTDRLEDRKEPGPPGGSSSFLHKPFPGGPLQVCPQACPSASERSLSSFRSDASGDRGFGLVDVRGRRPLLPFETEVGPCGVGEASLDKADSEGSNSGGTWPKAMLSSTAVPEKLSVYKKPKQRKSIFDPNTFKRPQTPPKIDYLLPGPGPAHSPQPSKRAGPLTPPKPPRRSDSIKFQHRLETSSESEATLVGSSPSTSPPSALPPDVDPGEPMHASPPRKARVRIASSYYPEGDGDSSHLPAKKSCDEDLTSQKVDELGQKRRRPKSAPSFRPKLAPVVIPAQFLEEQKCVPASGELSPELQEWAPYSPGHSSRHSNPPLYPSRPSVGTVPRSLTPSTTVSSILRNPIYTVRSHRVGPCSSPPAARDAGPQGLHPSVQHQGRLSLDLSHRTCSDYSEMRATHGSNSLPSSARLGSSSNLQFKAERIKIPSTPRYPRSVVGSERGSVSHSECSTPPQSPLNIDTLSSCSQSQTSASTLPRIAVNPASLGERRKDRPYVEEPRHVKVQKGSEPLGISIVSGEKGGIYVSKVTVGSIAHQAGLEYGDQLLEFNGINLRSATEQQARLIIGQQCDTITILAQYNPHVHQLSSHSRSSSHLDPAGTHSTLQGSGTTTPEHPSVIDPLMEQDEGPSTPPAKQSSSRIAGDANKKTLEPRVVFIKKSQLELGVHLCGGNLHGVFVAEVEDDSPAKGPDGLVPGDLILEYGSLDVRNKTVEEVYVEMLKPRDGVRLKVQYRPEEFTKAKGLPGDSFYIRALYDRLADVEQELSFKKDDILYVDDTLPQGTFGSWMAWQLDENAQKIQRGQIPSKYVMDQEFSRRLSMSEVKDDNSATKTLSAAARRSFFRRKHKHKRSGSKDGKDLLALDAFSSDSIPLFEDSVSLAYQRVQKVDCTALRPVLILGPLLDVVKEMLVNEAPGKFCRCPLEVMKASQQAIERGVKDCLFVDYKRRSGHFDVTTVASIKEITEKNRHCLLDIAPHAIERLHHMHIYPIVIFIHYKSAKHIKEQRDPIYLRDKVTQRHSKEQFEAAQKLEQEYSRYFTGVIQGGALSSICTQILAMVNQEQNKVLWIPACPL
UniProt Q8TBY9: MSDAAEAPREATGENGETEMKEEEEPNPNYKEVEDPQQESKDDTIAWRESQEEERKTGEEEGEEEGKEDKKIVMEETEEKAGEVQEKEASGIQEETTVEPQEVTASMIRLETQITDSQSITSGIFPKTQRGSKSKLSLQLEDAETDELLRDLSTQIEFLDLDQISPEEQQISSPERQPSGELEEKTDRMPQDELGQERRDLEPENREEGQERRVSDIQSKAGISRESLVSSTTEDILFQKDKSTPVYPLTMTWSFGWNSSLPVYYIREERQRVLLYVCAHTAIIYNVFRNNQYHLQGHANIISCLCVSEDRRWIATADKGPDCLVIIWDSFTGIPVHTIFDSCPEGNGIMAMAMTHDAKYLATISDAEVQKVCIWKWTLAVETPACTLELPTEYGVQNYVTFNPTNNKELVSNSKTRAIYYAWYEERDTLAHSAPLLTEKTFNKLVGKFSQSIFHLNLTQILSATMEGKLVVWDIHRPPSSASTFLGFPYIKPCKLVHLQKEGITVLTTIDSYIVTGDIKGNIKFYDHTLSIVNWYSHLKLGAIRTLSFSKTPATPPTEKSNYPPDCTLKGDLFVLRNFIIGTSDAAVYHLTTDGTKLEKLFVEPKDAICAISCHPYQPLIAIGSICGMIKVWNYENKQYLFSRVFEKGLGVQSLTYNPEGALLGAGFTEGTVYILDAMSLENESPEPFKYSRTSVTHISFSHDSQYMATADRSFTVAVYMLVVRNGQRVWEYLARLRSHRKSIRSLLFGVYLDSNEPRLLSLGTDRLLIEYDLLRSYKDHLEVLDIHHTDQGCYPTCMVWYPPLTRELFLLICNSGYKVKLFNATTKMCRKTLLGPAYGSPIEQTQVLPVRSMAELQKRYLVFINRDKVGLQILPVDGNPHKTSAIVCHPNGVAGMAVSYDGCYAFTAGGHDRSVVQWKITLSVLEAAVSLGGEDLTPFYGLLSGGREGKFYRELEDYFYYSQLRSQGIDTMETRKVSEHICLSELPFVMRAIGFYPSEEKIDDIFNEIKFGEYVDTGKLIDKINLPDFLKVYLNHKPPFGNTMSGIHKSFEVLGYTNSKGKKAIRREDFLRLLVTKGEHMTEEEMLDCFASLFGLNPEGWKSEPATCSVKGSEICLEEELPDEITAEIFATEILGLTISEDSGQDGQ
UniProt Q8WUR7: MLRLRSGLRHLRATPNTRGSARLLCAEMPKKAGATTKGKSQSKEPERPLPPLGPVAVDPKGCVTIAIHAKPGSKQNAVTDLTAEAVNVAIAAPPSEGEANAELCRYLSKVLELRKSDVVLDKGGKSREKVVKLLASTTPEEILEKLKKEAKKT

What follows are targets tested with CN[C@@H]1C[C@H]2O[C@@](C)([C@@H]1OC)n1c3ccccc3c3c4c(c5c6ccccc6n2c5c31)C(=O)NC4 [staurosporine] (assay: log2 fold change of tryptic peptide abundance, ligand vs vehicle (limited proteolysis) (log2 ratio); higher = more trypsin-susceptible (destabilized)). Details: ligand concentration: 20 uM; sample: K562 cleared lysate; digestion: 4 min, 22 C (HT-PELSA RT4min, Orbitrap Astral).
“UniProt Q8WYQ9 (peptide sequence: VVHASTLDR, peptide start residue: 596)” was tested, and the log2 fold change was 0.64.
For “SNX33 (peptide sequence: QATGRFEEDFIEKR, peptide start residue: 293) (UniProt Q8WV41)”, the log2 fold change was -0.781.
For “NOC3L (peptide sequence: LISEMCCEAVKK, peptide start residue: 376) (UniProt Q8WTT2)”, the log2 fold change was -0.246.
“SLC38A5 (peptide sequence: MNGALPSDAVGYRQER, peptide start residue: 8) (UniProt Q8WUX1)” was tested, and the log2 fold change was 0.0913.
In the case of “WASF1 (peptide sequence: RHPSTLPVISDAR, peptide start residue: 486) (UniProt Q92558)”, the log2 fold change is reported as -0.0958.
In the case of “UBXN4 (peptide sequence: MLWFQGAIPAAIATAK, peptide start residue: 1) (UniProt Q92575)”, the log2 fold change is reported as 0.433.
For “UniProt Q92572 (peptide sequence: VPNLPSFK, peptide start residue: 186)”, the log2 fold change was 0.0666.
“ARHGEF40 (peptide sequence: EAVLAALALR, peptide start residue: 900) (UniProt Q8TER5)” showed a log2 fold change of 0.435.
In the case of “NRGN (peptide sequence: KGPGPGGPGGAGVAR, peptide start residue: 54) (UniProt Q92686)”, the log2 fold change is reported as 0.172.
“UniProt Q92800 (peptide sequence: HAIEGNKK, peptide start residue: 218)” gave a log2 fold change of 0.576.
For “MDM1 (peptide sequence: LGVSAPTIPVR, peptide start residue: 429) (UniProt Q8TC05)”, the log2 fold change was 0.477.
“UniProt Q8TCG1 (peptide sequence: SIAQLIEKEEQRK, peptide start residue: 776)” was tested, and the log2 fold change was 0.429.
In the case of “DDX54 (peptide sequence: SRPAPSPESIKR, peptide start residue: 522) (UniProt Q8TDD1)”, the log2 fold change is reported as 0.354.
Target “PPP1R13L (peptide sequence: MDSEAFQSAR, peptide start residue: 1) (UniProt Q8WUF5)” has a log2 fold change of -0.342.
“RAB3IL1 (peptide sequence: SHYYISPSSR, peptide start residue: 322) (UniProt Q8TBN0)” showed a log2 fold change of 0.433.
“CHPT1 (peptide sequence: ALSEPLSAAQLR, peptide start residue: 16) (UniProt Q8WUD6)” gave a log2 fold change of 0.463.
“GATAD2B (peptide sequence: KDLANLEVPHELPTK, peptide start residue: 52) (UniProt Q8WXI9)” gave a log2 fold change of 0.828.
With “DLG5 (peptide sequence: LGSSSNLQFK, peptide start residue: 1261) (UniProt Q8TDM6)” the log2 fold change was 0.759.
“WDR66 (peptide sequence: TPATPPTEK, peptide start residue: 552) (UniProt Q8TBY9)” showed a log2 fold change of -0.148.
“TAF15 (peptide sequence: GGYDKDGR, peptide start residue: 188) (UniProt Q92804)” gave a log2 fold change of -0.295.
“C15orf40 (peptide sequence: GCVTIAIHAKPGSK, peptide start residue: 61) (UniProt Q8WUR7)” gave a log2 fold change of -0.152.
“UniProt Q8WTW4 (peptide sequence: IECIFFSEFHPTLGPK, peptide start residue: 7)” was tested, and the log2 fold change was -0.388.
“MRPS27 (peptide sequence: KLPVSSLTISR, peptide start residue: 64) (UniProt Q92552)” was tested, and the log2 fold change was 0.907.
“CHD5 (peptide sequence: ESLAGNKPANAVLHK, peptide start residue: 1849) (UniProt Q8TDI0)” gave a log2 fold change of 0.152.
In the case of “LPIN2 (peptide sequence: SESHMEWTWGGFPESTK, peptide start residue: 258) (UniProt Q92539)”, the log2 fold change is reported as -0.524.
“TTN (peptide sequence: PEVINITR, peptide start residue: 21207) (UniProt Q8WZ42)” was tested, and the log2 fold change was -0.313.
